In the supplement of paper PMC8960247:
Where a name gives a salt, the structure may show the parent alone. This is a noisy data set.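 The cells are immortalized human renal angiomyolipoma cells carrying an empty vector, so TSC2 stays lost. Viability was read by a luminescent ATP assay and normalized to vehicle-treated wells on each plate, in low-serum medium where TSC2-rescued cells do not grow.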

Test system: 621-102 (TSC2-deficient)
Test: relative viability vs DMSO (fraction); higher = less cytotoxic
Conditions: serum: 0.1% FBS, 72 h

Compound	relative viability (0.0128 nM)	relative viability (0.064 nM)	relative viability (0.32 nM)	relative viability (1.6 nM)	relative viability (8 nM)	relative viability (40 nM)	relative viability (200 nM)	relative viability (1000 nM)	relative viability (5000 nM)
COc1cc2c(Oc3ccc4[nH]c(C)cc4c3F)ncnc2cc1OCCCN1CCCC1 [AZD2171]	0.764	0.876	0.871	0.716	0.803	0.851	0.724	0.446	0.0589
O=C(c1cc(Cc2n[nH]c(=O)c3ccccc23)ccc1F)N1CCN(C(=O)C2CC2)CC1 [AZD2281]	0.851	0.823	0.811	0.878	0.854	0.878	0.611	0.726	0.606
Cc1ncc(-c2ccnc(Nc3ccc(S(C)(=O)=O)cc3)n2)n1C(C)C [AZD5438]	1.06	1.09	1.11	1.04	0.79	0.777	0.634	0.167	0.0225
Cn1cnc2c(F)c(Nc3ccc(Br)cc3Cl)c(C(=O)NOCCO)cc21 [AZD6244]	1.01	1.02	1.09	0.91	0.943	0.842	0.683	0.446	0.0096
NC(=O)Nc1cc(-c2cccc(F)c2)sc1C(=O)N[C@H]1CCCNC1 [AZD7762]	0.675	0.654	0.519	0.547	0.3	0.0422	0.00923	0.0046	0.0068
Cc1cc(C(=O)NOCCO)c(Nc2ccc(I)cc2F)n(C)c1=O [AZD8330]	0.905	0.886	0.932	0.911	0.949	0.874	0.733	0.258	0.0106
CNC(=O)CN1CCC(Oc2cc3c(Nc4cccc(Cl)c4F)ncnc3cc2OC)CC1 [AZD8931]	0.575	0.598	0.69	0.598	0.555	0.487	0.422	0.459	0.472
CC(=O)O[C@H]1CC[C@@]2(C)C(=CC[C@@H]3[C@@H]2CC[C@]2(C)C(c4cccnc4)=CC[C@@H]32)C1 [Abiraterone Acetate]	0.622	0.692	0.73	0.686	0.618	0.629	0.596	0.307	0.029
CC(=O)Nc1ccccc1 [Acetanilide]	0.808	0.833	0.854	0.823	0.794	0.799	0.753	0.8	0.795
Nc1[nH]cnc2ncnc1-2 [Adenine hydrochloride]	0.775	0.702	0.708	0.732	0.712	0.682	0.667	0.67	0.508
Nc1[nH]cnc2ncnc1-2 [Adenine]	0.191	1.46	0.691	0.621	0.0919	1.15	1.04	0.0832	0.0696
NCCCC(O)(P(=O)(O)O)P(=O)(O)O [Alendronate]	0.571	0.478	0.566	0.567	0.629	0.763	0.571	0.293	0.0218
COCCCOc1cc(C[C@@H](C[C@H](N)[C@@H](O)C[C@H](C(=O)NCC(C)(C)C(N)=O)C(C)C)C(C)C)ccc1OC [Aliskiren Hemifumarate]	0.837	0.674	0.7	0.774	0.65	0.694	0.703	0.665	0.515
O=C1c2ccccc2C(=O)c2c1ccc(O)c2O [Alizarin]	0.764	0.641	0.548	0.553	0.599	0.59	0.664	0.646	0.135
Oc1ncnc2[nH]ncc12 [Allopurinol]	0.435	0.613	0.55	0.582	0.638	0.643	0.563	0.56	0.644
NC12CC3CC(CC(C3)C1)C2 [Amantadine HCl]	0.802	0.815	0.76	0.756	0.712	0.656	0.648	0.727	0.583
CC(NC(C)(C)C)C(=O)c1cccc(Cl)c1 (configuration not stated) [Amfebutamone HCl]	0.73	0.766	0.781	0.717	0.768	0.692	0.728	0.634	0.645
CCN1CCCC1CNC(=O)c1cc(S(=O)(=O)CC)c(N)cc1OC (configuration not stated) [Amisulpride]	0.64	0.667	0.689	0.732	0.775	0.75	0.79	0.612	0.545

Whole records as entered above. Order of values: relative viability (0.0128 nM) | relative viability (0.064 nM) | relative viability (0.32 nM) | relative viability (1.6 nM) | relative viability (8 nM) | relative viability (40 nM) | relative viability (200 nM) | relative viability (1000 nM) | relative viability (5000 nM)
O=C(c1cc(Cc2n[nH]c(=O)c3ccccc23)ccc1F)N1CCN(C(=O)C2CC2)CC1 [AZD2281] as listed: 0.851 | 0.823 | 0.811 | 0.878 | 0.854 | 0.878 | 0.611 | 0.726 | 0.606
Nc1[nH]cnc2ncnc1-2 [Adenine hydrochloride] as listed: 0.775 | 0.702 | 0.708 | 0.732 | 0.712 | 0.682 | 0.667 | 0.67 | 0.508
